Results from publication PMC7819943, “Rice protein-binding microarrays: a tool to detect cis-acting elements near promoter regions in rice”.
The list shows a part of the results.

Amino acid sequences for entries named in this document (tags omitted).
UniProt Q0JBA9, entry or part of it: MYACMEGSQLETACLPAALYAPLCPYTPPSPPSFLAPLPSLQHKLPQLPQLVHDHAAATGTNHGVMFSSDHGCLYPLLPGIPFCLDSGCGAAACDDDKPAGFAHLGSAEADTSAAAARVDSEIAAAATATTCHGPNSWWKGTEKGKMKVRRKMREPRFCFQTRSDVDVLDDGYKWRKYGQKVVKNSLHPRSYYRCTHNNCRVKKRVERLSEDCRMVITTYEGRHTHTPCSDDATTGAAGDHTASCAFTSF

What follows are sequences tested against OsWRKY34 (Oryza sativa, UniProt Q0JBA9 1-250) (assay: protein-binding microarray (RPBM); PBS, 2% BSA, 51.3 ng/ul salmon testes DNA, 50 uM zinc acetate, 200 nM TF, 25 C, 1 h; high values mean tight binding). Conditions: protein: recombinant; tags: N-terminal polyhistidine and DsRed monomer fusion (pET32a); label: CyDye5-dUTP incorporated in the synthesized complementary strand; 3' TTTTT single-stranded linker to array surface; dsDNA, one strand shown.
Method in brief: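 The binding signal for each feature is its fluorescence intensity in arbitrary units. An Axon 4000B scanner was used to read a custom Agilent array that had been made double-stranded with Cy5-dUTP primer extension, blocked with 2% BSA, incubated at 25 °C for 1 h with 200 nM protein in PBS, 2% BSA, salmon testes DNA and 50 µM zinc acetate, and washed. The protein was an N-terminal polyhistidine–DsRed transcription factor fusion from E. coli BL21-CodonPlus, purified on Ni–NTA.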
With “GCCTCTCTCTAGACATCTCTCTCTTGTGTGTGGGTGGTTTCGGAGTCACCTAGTGCAG” the binding signal was 10100 fluorescence intensity (a.u.). “ATTGTACATTCCGTTTCCTGTAGTATGATTAGGCTTTCTTCGGAGTCACCTAGTGCAG” was tested, and the binding signal was 9320 fluorescence intensity (a.u.). In the case of “TCCCCATATTCCCTTCGCCACCGTCACTCCACGAGCGCGACGGAGTCACCTAGTGCAG”, the binding signal is reported as 9460 fluorescence intensity (a.u.). With “TCTCTCTCTCTCTCCAATCTCGAAGAGTTCCAGAAGCTTCCGGAGTCACCTAGTGCAG” the binding signal was 8560 fluorescence intensity (a.u.). With “AGGTTTCAGATTTGTTTGTCTGTTCCATTCCAAATTTCCACGGAGTCACCTAGTGCAG” the binding signal was 8100 fluorescence intensity (a.u.). “CTCAAAAGACCTTATTGTTCGTACTTCTCATTCTTAATTTCGGAGTCACCTAGTGCAG” was tested, and the binding signal was 8100 fluorescence intensity (a.u.). “TGGCTGGCGTGTTCGCTTCCGGTGGTATCCACATCGCCCCCGGAGTCACCTAGTGCAG” was tested, and the binding signal was 9330 fluorescence intensity (a.u.). “GCAATATTGTGCTCTCTGTCCTGGAATCTCTCGGCCATCACGGAGTCACCTAGTGCAG” was tested, and the binding signal was 8950 fluorescence intensity (a.u.). In the case of “ATGATGATATTAAACTACTTGACCGACACAGCGTTCATCCCGGAGTCACCTAGTGCAG”, the binding signal is reported as 9950 fluorescence intensity (a.u.). In the case of “CATGAGTTCATAACCTCACCTCACGTTTTTATTTAATTTTCGGAGTCACCTAGTGCAG”, the binding signal is reported as 8880 fluorescence intensity (a.u.). “TCTATGTTTGTTTTTTATGGGGCGGAGGGAGTAAGGCTAACGGAGTCACCTAGTGCAG” was tested, and the binding signal was 13900 fluorescence intensity (a.u.). With “ATATGAGTCTGTATTGTTGGATTTGATTTGCTTCTTTAACCGGAGTCACCTAGTGCAG” the binding signal was 8340 fluorescence intensity (a.u.). With “AATATTTATTTTTATATATGTCCGTTTTGTTTTTTAATCTCGGAGTCACCTAGTGCAG” the binding signal was 11400 fluorescence intensity (a.u.). With “CGGTTTCGAGGTTTTTGTTGTAGACGCAGTCCATGGACCGCGGAGTCACCTAGTGCAG” the binding signal was 8170 fluorescence intensity (a.u.). For “CTCGATTCTTCTGCAGCTGGGCGGGAGGGGAGGCGTGGCGCGGAGTCACCTAGTGCAG”, the binding signal was 18300 fluorescence intensity (a.u.). With “CCACCAACCACTAACGATTGCTCTGCACTGTATTTGTATGCGGAGTCACCTAGTGCAG” the binding signal was 9240 fluorescence intensity (a.u.). For “TTTTCAGTATTTTTTTTGGAGTTAATTGAGGGGCGGTAATCGGAGTCACCTAGTGCAG”, the binding signal was 12100 fluorescence intensity (a.u.). “TTCTTTTTTAGACTAGCCATGTACATAATTCTATCGTCCTCGGAGTCACCTAGTGCAG” was tested, and the binding signal was 8210 fluorescence intensity (a.u.). For “CGGCGGCTGTATCGTGATATGTGTTCTTGGAAAAAAAAGACGGAGTCACCTAGTGCAG”, the binding signal was 8860 fluorescence intensity (a.u.). For “CCCCACGGCCCACGCTAGCCCGACCATGCGCCGACCTCACCGGAGTCACCTAGTGCAG”, the binding signal was 8870 fluorescence intensity (a.u.). With “GCCCACCACCGCCATTCGCCACCACCTCGCCTCCGATTCACGGAGTCACCTAGTGCAG” the binding signal was 12600 fluorescence intensity (a.u.). With “CCAGGTGATTCGTGTTTCTTTATGTTTTACATATTTCTTGCGGAGTCACCTAGTGCAG” the binding signal was 8420 fluorescence intensity (a.u.). For “GCCGTTGACTTTTTCTCACATATTTGACCATTCGTCTTATCGGAGTCACCTAGTGCAG”, the binding signal was 45300 fluorescence intensity (a.u.). In the case of “CGGCCTCCGATGGCGCCCCGGCCATACTGCCCCGTGACCCCGGAGTCACCTAGTGCAG”, the binding signal is reported as 8210 fluorescence intensity (a.u.). In the case of “ACTTTCTTACGTAAACCTTTTTTAAAAAAACACACCAGTTCGGAGTCACCTAGTGCAG”, the binding signal is reported as 11100 fluorescence intensity (a.u.). For “GGGTCTCTGTCCAGTCCAGTCCACTTCCGGCCCATTTGCTCGGAGTCACCTAGTGCAG”, the binding signal was 9500 fluorescence intensity (a.u.). For “ACGGTAGTAGTTAGGATTTTCTTTTTTTCGTGAGATTTTTCGGAGTCACCTAGTGCAG”, the binding signal was 8110 fluorescence intensity (a.u.). In the case of “ATTTAGGGACGGGGAGTATATGCCAAGTACTTTTAGATATCGGAGTCACCTAGTGCAG”, the binding signal is reported as 11000 fluorescence intensity (a.u.). With “AAATCAAATTCTCATATTAATTTCACCGTCAATTCTCTCGCGGAGTCACCTAGTGCAG” the binding signal was 9030 fluorescence intensity (a.u.). In the case of “AAAATATCAGATTAATCCATTTTTCAAGTTTGTAGTAATTCGGAGTCACCTAGTGCAG”, the binding signal is reported as 8360 fluorescence intensity (a.u.). “TCTCCGTTCTCATCAGGCTTTAGCCACACTGCTTCAATATCGGAGTCACCTAGTGCAG” was tested, and the binding signal was 9660 fluorescence intensity (a.u.). In the case of “CTCCGGCCAATCACCGCCGCTGTCGTTGCGTTCGCCGGCGCGGAGTCACCTAGTGCAG”, the binding signal is reported as 9630 fluorescence intensity (a.u.). In the case of “AAAGTGAACAGGCCCCTAGCGTAGATGTCGGGTGGGATGGCGGAGTCACCTAGTGCAG”, the binding signal is reported as 8590 fluorescence intensity (a.u.). In the case of “TCGTAGGGTGCGGGGTGGCTGCCTGTCTCCTTCGCCTCGCCGGAGTCACCTAGTGCAG”, the binding signal is reported as 9680 fluorescence intensity (a.u.). For “AACTTGAAATAAGTTTCAGTGTGTCTATTTTTGTTTTTTACGGAGTCACCTAGTGCAG”, the binding signal was 8090 fluorescence intensity (a.u.). In the case of “TCTCTCCACCCTTGCCCACCTGAACCCGCGTCCATACGCCCGGAGTCACCTAGTGCAG”, the binding signal is reported as 8230 fluorescence intensity (a.u.). In the case of “GCGGCAGGGTCTATTTTTGTAATTTTTTTTGGCCGATAGACGGAGTCACCTAGTGCAG”, the binding signal is reported as 8620 fluorescence intensity (a.u.). In the case of “AATCCCTTCAATACCCCTGAATTTGACATCACCCCTTATACGGAGTCACCTAGTGCAG”, the binding signal is reported as 9940 fluorescence intensity (a.u.). “GTAGAGTGGTGGTGGGGTGTGCAAGCAATCCGGGTGGATTCGGAGTCACCTAGTGCAG” was tested, and the binding signal was 9110 fluorescence intensity (a.u.). “TTCTTCTTCATCCAGCTGCATGCCACGGACTGCAATCTATCGGAGTCACCTAGTGCAG” was tested, and the binding signal was 8880 fluorescence intensity (a.u.). For “GTTGCTCCGTTGCATTTTTATGAGAGTTACTGATCGAACACGGAGTCACCTAGTGCAG”, the binding signal was 11100 fluorescence intensity (a.u.). With “CTGACCCGCCCCGCCTCCTTCTCTCGCCGCGCTCTCGTTACGGAGTCACCTAGTGCAG” the binding signal was 11100 fluorescence intensity (a.u.).
